{"sequences": {"note": "Chains of the proteins cited; added tags and fusions are not shown.", "UniProt Q0JBA9, entry or part of it": "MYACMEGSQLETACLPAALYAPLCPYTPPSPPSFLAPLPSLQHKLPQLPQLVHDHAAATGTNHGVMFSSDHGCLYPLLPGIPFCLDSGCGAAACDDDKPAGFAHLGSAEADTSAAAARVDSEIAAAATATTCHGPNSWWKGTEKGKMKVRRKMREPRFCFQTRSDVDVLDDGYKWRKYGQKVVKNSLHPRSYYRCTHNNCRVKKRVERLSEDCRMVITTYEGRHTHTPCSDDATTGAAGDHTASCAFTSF"}, "source": "paper PMC7819943", "about": "“Rice protein-binding microarrays: a tool to detect cis-acting elements near promoter regions in rice”", "note": "This is one part of the list."}
{"target": "OsWRKY34 (Oryza sativa, UniProt Q0JBA9 1-250)", "test": "protein-binding microarray (RPBM); PBS, 2% BSA, 51.3 ng/ul salmon testes DNA, 50 uM zinc acetate, 200 nM TF, 25 C, 1 h; high values mean tight binding", "settings": "protein: recombinant; tags: N-terminal polyhistidine and DsRed monomer fusion (pET32a); label: CyDye5-dUTP incorporated in the synthesized complementary strand; 3' TTTTT single-stranded linker to array surface; dsDNA, one strand shown", "method_in_brief": "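Binding signal here means per-feature fluorescence intensity in arbitrary units. The values were read on an Axon 4000B scanner after a custom Agilent array, double-stranded by primer extension with Cy5-dUTP, was incubated with 200 nM protein at 25 °C for 1 h in PBS with 2% BSA, salmon testes DNA and 50 µM zinc acetate, then washed. The proteins were transcription factors with an N-terminal polyhistidine tag and DsRed, expressed in E. coli BL21-CodonPlus and purified on Ni–NTA.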"}
{"sequence": "AGCTTCCACTGCTCGCATCGCTTGTCATCATCATCAGTTCCGGAGTCACCTAGTGCAG", "binding signal": "8240 fluorescence intensity (a.u.)"}
{"sequence": "AGGAGGGGAGGCGCGGCGGAGGAGAAGAGGTGGGGATGGACGGAGTCACCTAGTGCAG", "binding signal": "10000 fluorescence intensity (a.u.)"}
{"sequence": "CCATCATCATTCGTGTCCTTTCCATTCTCTCCTGAAATCCCGGAGTCACCTAGTGCAG", "binding signal": "8430 fluorescence intensity (a.u.)"}
{"sequence": "CCAATTACACCTTAGCATGCACACATTCTCCCATACTGCACGGAGTCACCTAGTGCAG", "binding signal": "8720 fluorescence intensity (a.u.)"}
{"sequence": "TGGTTGTACAATTTTCATGTTATTTGGAAAAATAGCCTTACGGAGTCACCTAGTGCAG", "binding signal": "8050 fluorescence intensity (a.u.)"}
{"sequence": "ACTCCACTCACACTACTGTCACCAACCTTATCTACAAATTCGGAGTCACCTAGTGCAG", "binding signal": "11200 fluorescence intensity (a.u.)"}
{"sequence": "CCCTTCATTCCATTTTAAGTGCAGTTATGGGTTTCTTTGTCGGAGTCACCTAGTGCAG", "binding signal": "9250 fluorescence intensity (a.u.)"}
{"sequence": "ACAACAACGATACTCCACCCTCGTTCATAGCGCACCCCTACGGAGTCACCTAGTGCAG", "binding signal": "8170 fluorescence intensity (a.u.)"}
{"sequence": "TTTTATTTAGCTGTTCTTCTTTTGGATTTACTATCTTTTTCGGAGTCACCTAGTGCAG", "binding signal": "10300 fluorescence intensity (a.u.)"}
{"sequence": "AGAGTGGTGTGGGTGTGTGGGCATCTGATTTTTCTCTCCACGGAGTCACCTAGTGCAG", "binding signal": "11400 fluorescence intensity (a.u.)"}
{"sequence": "AACTTTCAACTTTTCCGTCACATCGAACTTTTCTACACACCGGAGTCACCTAGTGCAG", "binding signal": "9860 fluorescence intensity (a.u.)"}
{"sequence": "CGTCAAGAAAGTTAATATAGTTTGGGGTTTATAATATTTTCGGAGTCACCTAGTGCAG", "binding signal": "9170 fluorescence intensity (a.u.)"}
{"sequence": "GATTAAAGTCAAACTACTTCATATTTGACCAAGTTTATAGCGGAGTCACCTAGTGCAG", "binding signal": "8490 fluorescence intensity (a.u.)"}
{"sequence": "AGGAGGAAGAAGAAGAGGGGTTGGTTGTTGTTGGCCGGAGCGGAGTCACCTAGTGCAG", "binding signal": "10200 fluorescence intensity (a.u.)"}
{"sequence": "GGGGTGGGTGCGACTACGACTACGACCTCTTCACCATCGGCGGAGTCACCTAGTGCAG", "binding signal": "9500 fluorescence intensity (a.u.)"}
{"sequence": "CATTTCTCTATTCAACTTCGCCATCTTGATTAGTCCCTGTCGGAGTCACCTAGTGCAG", "binding signal": "9480 fluorescence intensity (a.u.)"}
{"sequence": "ATGAACTCTACAAGTCATTTTGTCGCCATCAGCTTCTTTCCGGAGTCACCTAGTGCAG", "binding signal": "9360 fluorescence intensity (a.u.)"}
{"sequence": "ATCACTGCACGCTGACCACTTCTCACCTTCTTTGCTAGTGCGGAGTCACCTAGTGCAG", "binding signal": "10500 fluorescence intensity (a.u.)"}
{"sequence": "TTTTAATTTTTTTTCCTTATACATTTCCTTTGCTTTTTTTCGGAGTCACCTAGTGCAG", "binding signal": "8250 fluorescence intensity (a.u.)"}
{"sequence": "CCTGCATAACAAACTGCTTTGACTTTTTTCTGACACTTATCGGAGTCACCTAGTGCAG", "binding signal": "12800 fluorescence intensity (a.u.)"}
{"sequence": "TCCACTCTACTCTTCGTGTGTCTTTCTCATTCCCACGCTCCGGAGTCACCTAGTGCAG", "binding signal": "11400 fluorescence intensity (a.u.)"}
{"sequence": "CCTAATCACCTCGATCATTCGCTACGTTTTTGCTTGTTCACGGAGTCACCTAGTGCAG", "binding signal": "9200 fluorescence intensity (a.u.)"}
{"sequence": "CTCTCCTCTCCTCGCTTCTTCGTCTCGCTTGCTCGCTCGCCGGAGTCACCTAGTGCAG", "binding signal": "8550 fluorescence intensity (a.u.)"}
{"sequence": "AGAAGGTGGGGTTAGGGTCATGATGGTATGCTGAGCAGTGCGGAGTCACCTAGTGCAG", "binding signal": "8420 fluorescence intensity (a.u.)"}
{"sequence": "ACCCTAATTCCATCCACCGCTCGATCCAATCTACCCTCTCCGGAGTCACCTAGTGCAG", "binding signal": "9640 fluorescence intensity (a.u.)"}
{"sequence": "TACTCACATTACTCTATATAATGCTCTCTCATATTGTTTTCGGAGTCACCTAGTGCAG", "binding signal": "13900 fluorescence intensity (a.u.)"}
{"sequence": "GCATTTAAAGTATTTTTATACACTCCGTCCATTTACAAATCGGAGTCACCTAGTGCAG", "binding signal": "8120 fluorescence intensity (a.u.)"}
{"sequence": "CCTTGTTACTTTATCACTTCAGCATGGTCATAACATCATTCGGAGTCACCTAGTGCAG", "binding signal": "8100 fluorescence intensity (a.u.)"}
{"sequence": "GTTTGCTGTTTTTCTTGCCTTGTTCTAACAATAGCATTTCCGGAGTCACCTAGTGCAG", "binding signal": "8740 fluorescence intensity (a.u.)"}
{"sequence": "TTTTTTACCCTTAGATCTATTCATCCAATGGCTTATATCACGGAGTCACCTAGTGCAG", "binding signal": "9060 fluorescence intensity (a.u.)"}
{"sequence": "CTTCTTCTTCTTCCTGAGGTGGGTCAGGGTGGGCGTGGATCGGAGTCACCTAGTGCAG", "binding signal": "14800 fluorescence intensity (a.u.)"}
{"sequence": "GCTCATCGTCATCACACGTCGCCGTCCCTTTCGGTTTCATCGGAGTCACCTAGTGCAG", "binding signal": "11800 fluorescence intensity (a.u.)"}
{"sequence": "GGACCCAACCCTACCCTTGTCAGTTGTATTAAGCATTTTTCGGAGTCACCTAGTGCAG", "binding signal": "11300 fluorescence intensity (a.u.)"}
{"sequence": "ACCTTATTTACACGGTTTTGTAAGTTGGGAGATACGTTATCGGAGTCACCTAGTGCAG", "binding signal": "8500 fluorescence intensity (a.u.)"}
{"sequence": "CTCTTGTCGCCATCGCATCCCCGTCGCGTCTCCATCTTGTCGGAGTCACCTAGTGCAG", "binding signal": "9960 fluorescence intensity (a.u.)"}
{"sequence": "TTAATTGTGCCGCTATAGATCTAGTCGTTGTTTGTGCTTTCGGAGTCACCTAGTGCAG", "binding signal": "12500 fluorescence intensity (a.u.)"}
{"sequence": "GCACGCAGCTTTTCTTTCTTGGCCTCGCCTCGCCTCGCCTCGGAGTCACCTAGTGCAG", "binding signal": "8900 fluorescence intensity (a.u.)"}
{"sequence": "CTTATCATTTACATGCAGGACCTACTTCTATTTTTAATTCCGGAGTCACCTAGTGCAG", "binding signal": "8780 fluorescence intensity (a.u.)"}
{"sequence": "TTCTTTTGCATCGCCCTTGATCGTGCTCCCTTGTCAAAGTCGGAGTCACCTAGTGCAG", "binding signal": "8250 fluorescence intensity (a.u.)"}
{"sequence": "ATGGGTGGAGGAGTGGGAGGGGATTAAATATCGGCGGAGGCGGAGTCACCTAGTGCAG", "binding signal": "9240 fluorescence intensity (a.u.)"}
{"sequence": "GGAGCCACCGCTGCCGTCCCACTCTCCCGTTATTGCCGCCCGGAGTCACCTAGTGCAG", "binding signal": "8230 fluorescence intensity (a.u.)"}
{"sequence": "CATCCAAGCTGCTCGTCGCGCTATCTATACATGACACGCCCGGAGTCACCTAGTGCAG", "binding signal": "8910 fluorescence intensity (a.u.)"}
{"sequence": "TAATATATGATCATACTTGTTTTATATACATTGTGTCTTGCGGAGTCACCTAGTGCAG", "binding signal": "9830 fluorescence intensity (a.u.)"}
{"sequence": "GCTTCCCCTGTTTCTTGTTTGTTGAGTGGATTGAATGGAGCGGAGTCACCTAGTGCAG", "binding signal": "8430 fluorescence intensity (a.u.)"}
{"sequence": "TGACGCCGAGCAGGACGCCGGCGCAGAGCCCTCCTTTCCCCGGAGTCACCTAGTGCAG", "binding signal": "8480 fluorescence intensity (a.u.)"}
{"sequence": "TCCACAAACCATCATAGGCGTCGCATCCACACCTGTTTCCCGGAGTCACCTAGTGCAG", "binding signal": "9110 fluorescence intensity (a.u.)"}
{"sequence": "ATTGTAACTTCCCTTTCTGTTGCTGAAACATTTACTTAGTCGGAGTCACCTAGTGCAG", "binding signal": "8580 fluorescence intensity (a.u.)"}
{"sequence": "TCCGCCGCTTCATCTGAATCCCCAAGGATCTCGTCCACGCCGGAGTCACCTAGTGCAG", "binding signal": "9640 fluorescence intensity (a.u.)"}
{"sequence": "TCCACGACCTCTGCCGCCCGAGCTCCATGTCTACCGCCACCGGAGTCACCTAGTGCAG", "binding signal": "9300 fluorescence intensity (a.u.)"}
{"sequence": "ATTTCAGGCCCACTAGTCCGCTCTTCCTCTTCTTTTTTTTCGGAGTCACCTAGTGCAG", "binding signal": "9840 fluorescence intensity (a.u.)"}
{"sequence": "CTGCCTGCGCGCACCACCACCTGCTGCTCTCTCTCTCTCGCGGAGTCACCTAGTGCAG", "binding signal": "9930 fluorescence intensity (a.u.)"}
{"sequence": "GTTCGCCACCGCCCCGTCCCGCTCCGTGCCGCCGGCTTCGCGGAGTCACCTAGTGCAG", "binding signal": "8360 fluorescence intensity (a.u.)"}
{"sequence": "AAATTGTATTTCTATATGGGTCCTGCTTTTTCTTTTTCTCCGGAGTCACCTAGTGCAG", "binding signal": "10600 fluorescence intensity (a.u.)"}
{"sequence": "GTCTTTCATTCATGGTTAGCTCTTAATTGGTCAAACTAATCGGAGTCACCTAGTGCAG", "binding signal": "10600 fluorescence intensity (a.u.)"}
